Laboratory results: PubChem BioAssay AID1053208 (Peter MacCallum Cancer Centre, 2014)
Purpose: 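Genes whose silencing cuts survival of bone tumour cells only with doxorubicin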 (primary screen). System: mouse osteosarcoma cells, early-passage culture from an engineered mouse model of fibroblastic bone tumour. Reagent: siRNA pool against mouse genes, 40 nM. Time to read-out: about 120 h (48 h before drug, then 72 h with drug). Conditions: doxorubicin 100 nM for 72 h, roughly 30-40% inhibitory dose. Read-out: 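Viability read as ATP luminescence after 72 h of 100 nM doxorubicin or none, duplicate wells averaged, scaled to non-targeting siRNA, then expressed as robust z-scores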. Scale: viability z-score with doxorubicin: higher = more viable cells under doxorubicin; viability z-score without drug: higher = more viable cells with knock-down alone. Active means: 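Called active if knock-down leaves viability unchanged without drug (z within -2 to 2) but lowers it with doxorubicin (z at or under -2)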.
Here is an unselected part of about 17,000 reagents tested. 788 of all reagents (4.7%) were called active. 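Calls rest on z-score classes alone; an extra cut-off of viability at most 70% of control was not applied to them.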 Not all columns of the deposit are shown.

| target gene | combined z-score class | viability z-score with doxorubicin | viability z-score without drug | outcome |
| --- | --- | --- | --- | --- |
| Psmd3 | low cell count with doxorubicin only | -2.7 | -0.67 | active |
| Sash3 | low cell count with doxorubicin only | -3.37 | -1.35 | active |
| Serpinb9e | no change with or without drug | 1.24 | 0 | inactive |
| Psmb4 | no change with or without drug | -1.69 | -0.67 | inactive |
| Kcnip4 | no change with or without drug | -0.22 | -1.52 | inactive |
| Abca3 | no change with or without drug | 0.79 | 0.51 | inactive |
| 4921511C20Rik | no change with or without drug | -0.79 | -0.34 | inactive |
| Tiam1 | no change with or without drug | -0.9 | -0.17 | inactive |
| Cma2 | no change with or without drug | -0.34 | 0.84 | inactive |
| Rad51b | no change with or without drug | 1.57 | -0.51 | inactive |
| 1700013G24Rik | high cell count without drug only | 1.57 | 2.53 | inactive |
| Lrrc41 | no change with or without drug | 0 | 1.18 | inactive |
| Dact1 | no change with or without drug | 0.45 | 1.01 | inactive |
| Ash1l | no change with or without drug | -0.22 | -1.35 | inactive |
| Pard3 | no change with or without drug | -1.35 | 0.17 | inactive |
| Ankrd34c | high cell count without drug only | 0.45 | 2.02 | inactive |
| 2410137M14Rik | no change with or without drug | 0.67 | 1.52 | inactive |
| Kif24 | no change with or without drug | -1.12 | -0.17 | inactive |
| Smyd3 | no change with or without drug | 0.45 | 1.52 | inactive |
| Txndc16 | no change with or without drug | -0.34 | -0.84 | inactive |
| Pebp1 | no change with or without drug | 0.34 | 0.51 | inactive |
| Afap1l2 | no change with or without drug | -0.67 | 0.84 | inactive |
| Atg3 | low cell count without drug only | 1.35 | -3.54 | inactive |
| Mtres1 | high cell count with doxorubicin only | 2.7 | 1.52 | inactive |
| Ykt6 | no change with or without drug | 0.22 | 0.51 | inactive |
| Cradd | no change with or without drug | -0.56 | 0.34 | inactive |
| Tcp11 | low cell count with doxorubicin only | -2.47 | -0.51 | active |
| Traf5 | no change with or without drug | -0.67 | 0.17 | inactive |
| Arl4a | no change with or without drug | -0.67 | 0 | inactive |
| Arhgef19 | no change with or without drug | 1.35 | 0.34 | inactive |
| Sertad1 | high cell count without drug only | 1.35 | 2.19 | inactive |
| Raf1 | no change with or without drug | -1.46 | -0.84 | inactive |
| Aspdh | no change with or without drug | -0.22 | 0.17 | inactive |
| Ptdss1 | no change with or without drug | 1.35 | 0.34 | inactive |

Called active (from the list above):
| target gene | combined z-score class | viability z-score with doxorubicin | viability z-score without drug | outcome |
| --- | --- | --- | --- | --- |
| Psmd3 | low cell count with doxorubicin only | -2.7 | -0.67 | active |
| Sash3 | low cell count with doxorubicin only | -3.37 | -1.35 | active |
| Tcp11 | low cell count with doxorubicin only | -2.47 | -0.51 | active |
